PubChem BioAssay AID1053208, Peter MacCallum Cancer Centre | 2014
Shown is an unselected part of about 17,000 deposited reagents. In the full data, 788 (4.7%) got an active call. 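Calls rest on z-score classes alone; an extra cut-off of viability at most 70% of control was not applied to them.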

Aim: 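Synthetic lethal interactions between gene loss and doxorubicin in osteosarcoma cells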 (primary screen)
Cell system: mouse osteosarcoma cells, early-passage culture from an engineered mouse model of fibroblastic bone tumour
Reagent: siRNA pool against mouse genes, 40 nM
Timing: about 120 h (48 h before drug, then 72 h with drug)
Challenge: doxorubicin 100 nM for 72 h, roughly 30-40% inhibitory dose
Measurement: 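Viability read as ATP luminescence after 72 h of 100 nM doxorubicin or none, duplicate wells averaged, scaled to non-targeting siRNA, then expressed as robust z-scores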
Direction: viability z-score with doxorubicin and doxorubicin viability vs non-targeting: higher = more viable cells under doxorubicin; viability z-score without drug: higher = more viable cells with knock-down alone; z-score of drug to no-drug ratio: higher = less drug sensitisation by knock-down
Rule for the call: 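Called active if knock-down leaves viability unchanged without drug (z within -2 to 2) but lowers it with doxorubicin (z at or under -2)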

| target | combined z-score class | viability z-score with doxorubicin | viability z-score without drug | z-score of drug to no-drug ratio | doxorubicin viability vs non-targeting | Outcome |
| --- | --- | --- | --- | --- | --- | --- |
| Zfp709 | no change with or without drug | 1.01 | 0.17 | 1.01 | 1.03 | inactive |
| G3bp2 | no change with or without drug | -1.12 | 0.34 | -1.24 | 0.84 | inactive |
| Txlna | no change with or without drug | -1.69 | 0.34 | -1.91 | 0.79 | inactive |
| Myo15a | no change with or without drug | 1.01 | 1.35 | 0.22 | 1.03 | inactive |
| Defb12 | no change with or without drug | 0 | 0.84 | -0.45 | 0.94 | inactive |
| Pcdhb6 | no change with or without drug | -1.91 | -1.01 | -1.24 | 0.77 | inactive |
| Psma2 | no change with or without drug | -1.57 | -0.51 | -1.24 | 0.8 | inactive |
| Il17ra | no change with or without drug | 0.67 | -1.18 | 1.8 | 1 | inactive |
| Ift22 | no change with or without drug | 0.79 | -0.51 | 1.35 | 1.01 | inactive |
| A630038E17Rik | no change with or without drug | 0.11 | 0.51 | -0.11 | 0.95 | inactive |
| Pald1 | no change with or without drug | 0.22 | -0.17 | 0.45 | 0.96 | inactive |
| Zfp867 | no change with or without drug | -1.01 | -0.67 | -0.56 | 0.85 | inactive |
| Zfp945 | no change with or without drug | 0.45 | 0.34 | 0.34 | 0.98 | inactive |
| Stac3 | no change with or without drug | -1.35 | -1.35 | -0.45 | 0.82 | inactive |
| Or8b1d | no change with or without drug | 1.8 | -0.84 | 2.7 | 1.1 | inactive |
| Mei1 | no change with or without drug | 1.69 | 1.18 | 1.01 | 1.09 | inactive |
| Cdca3 | no change with or without drug | -0.22 | 0 | -0.11 | 0.92 | inactive |
| Bdnf | no change with or without drug | 0.9 | 1.01 | 0.34 | 1.02 | inactive |
| Krt27 | no change with or without drug | 0.79 | -0.17 | 1.01 | 1.01 | inactive |
| H2-Eb1 | no change with or without drug | 0 | 0.17 | 0 | 0.94 | inactive |
| Krtap19-3 | no change with or without drug | -1.24 | -0.17 | -1.12 | 0.83 | inactive |
| Zfp7 | high cell count with and without drug | 2.02 | 3.54 | -0.11 | 1.12 | inactive |
| Hlcs | no change with or without drug | 1.12 | 0.51 | 0.9 | 1.04 | inactive |
| Or8k35 | no change with or without drug | 0.22 | -0.17 | 0.45 | 0.96 | inactive |
| Ss18 | no change with or without drug | 0.11 | -0.17 | 0.34 | 0.95 | inactive |
| Or8h10 | no change with or without drug | 0.9 | 1.01 | 0.34 | 1.02 | inactive |
| Prl2b1 | no change with or without drug | 1.12 | 0.17 | 1.12 | 1.04 | inactive |
| Rab4a | high cell count without drug only | 1.57 | 2.36 | 0.11 | 1.08 | inactive |
| Irf6 | no change with or without drug | 0.34 | 1.01 | -0.22 | 0.97 | inactive |
| Ak9 | no change with or without drug | 1.24 | 1.18 | 0.56 | 1.05 | inactive |
| Adgrb1 | no change with or without drug | -1.01 | 1.69 | -1.91 | 0.85 | inactive |
| Mzt2 | no change with or without drug | 0.11 | 0.17 | 0.11 | 0.95 | inactive |
| 9430077A04Rik | low cell count with doxorubicin only | -2.47 | 0.84 | -2.92 | 0.72 | active |
| Zfp36l1 | no change with or without drug | 0.11 | -0.51 | 0.56 | 0.95 | inactive |

Looked up above:
Result of Defb12 in “viability z-score with doxorubicin”: 0
Entry for Adgrb1 in “z-score of drug to no-drug ratio”: -1.91
